Measurements taken from publication PMC9986639.
These are yes or no findings as the source states them, for the method shown. For some of these results: In cells and extracts the contact can be indirect. Some results given as binding are weak or reduced against the parent protein; the word gives no strength. For some of these results: Sequences can lack the tags named with a protein.

Experiments:
[1] = biological target: Trx1-6×His (thioredoxin 1) (E. coli) [thioredoxin: P0AA25]; assay: cross-linking; in vitro: 10 μM Trx1 and 10 μM Tpx or PAPR in Hepes buffer pH 8.0, 0.5 mM BVSB or PDES, RT, 4 h, stopped with 100 mM DTT; Western blot and MS of cross-linked peptides (trypsin and Glu-C); both purified
[2] = biological target: Trx1* (N-terminal 6×His Trx1 K4R K19R) (E. coli) [thioredoxin: P0AA25]; assay: cross-linking; live E. coli expressing Trx1* treated with BVSB or PDES; Ni-NTA, Lys-C, second Ni-NTA step, on-beads Glu-C; cross-linked peptides identified by LC-MS/MS (pLink2); results of both cross-linkers combined
[3] = biological target: T1, TXN1-6×His (thioredoxin 1) (UniProt P10599); assay: cross-linking; live HEK293T cells transfected with the His-tagged bait, 0.5 mM BVSB or PDES (1 h at 4°C and 2 h at RT, in PBS); lysis in 8 M urea, Ni-NTA, trypsin, SCX fractions; cross-linked peptides identified by LC-MS/MS (pLink2)
T1 sequence: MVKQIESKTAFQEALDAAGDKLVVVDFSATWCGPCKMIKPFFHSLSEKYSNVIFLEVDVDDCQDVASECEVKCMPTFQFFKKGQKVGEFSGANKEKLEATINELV

[4] = biological target: Trx1-6×His (thioredoxin 1) (E. coli) [thioredoxin: P0AA25]; assay: cross-linking; live E. coli BL21(DE3) co-expressing His-tagged Trx1 and the Flag-tagged partner; BVSB or PDES (2.5 mM, 1 h at 4°C and 2 h at RT, in PBS); Western blot under denaturing conditions (anti-His, anti-Flag) and MS of cross-linked peptides

B1: PAPR-Flag-6×His (3'-phosphoadenosine 5'-phosphosulfate reductase) (enzyme, UniProt P17854 1-244)
chain: MSKLDLNALNELPKVDRILALAETNAELEKLDAEGRVAWALDNLPGEYVLSSSFGIQAAVSLHLVNQIRPDIPVILTDTGYLFPETYRFIDELTDKLKLNLKVYRATESAAWQEARYGKLWEQGVEGIEKYNDINKVEPMNRALKELNAQTWFAGLRREQSGSRANLPVLAIQRGVFKVLPIIDWDNRTIYQYLQKHGLKYHPLWDEGYLSVGDTHTTRKWEPGMAEEETRFFGLKRECGLHEG
binding [1]: binds weakly

B2: AceA (enzyme, UniProt P0A9G6 1-434)
chain: MKTRTQQIEELQKEWTQPRWEGITRPYSAEDVVKLRGSVNPECTLAQLGAAKMWRLLHGESKKGYINSLGALTGGQALQQAKAGIEAVYLSGWQVAADANLAASMYPDQSLYPANSVPAVVERINNTFRRADQIQWSAGIEPGDPRYVDYFLPIVADAEAGFGGVLNAFELMKAMIEAGAAAVHFEDQLASVKKCGHMGGKVLVPTQEAIQKLVAARLAADVTGVPTLLVARTDADAADLITSDCDPYDSEFITGERTSEGFFRTHAGIEQAISRGLAYAPYADLVWCETSTPDLELARRFAQAIHAKYPGKLLAYNCSPSFNWQKNLDDKTIASFQQQLSDMGYKFQFITLAGIHSMWFNMFDLANAYAQGEGMKHYVEKVQQPEFAAAKDGYTFVSHQQEVGTGYFDKVTTIIQGGTSSVTALTGSTEESQF
binding [2]: binds

B3: FabB (enzyme, UniProt P0A953 1-406)
chain: MKRAVITGLGIVSSIGNNQQEVLASLREGRSGITFSQELKDSGMRSHVWGNVKLDTTGLIDRKVVRFMSDASIYAFLSMEQAIADAGLSPEAYQNNPRVGLIAGSGGGSPRFQVFGADAMRGPRGLKAVGPYVVTKAMASGVSACLATPFKIHGVNYSISSACATSAHCIGNAVEQIQLGKQDIVFAGGGEELCWEMACEFDAMGALSTKYNDTPEKASRTYDAHRDGFVIAGGGGMVVVEELEHALARGAHIYAEIVGYGATSDGADMVAPSGEGAVRCMKMAMHGVDTPIDYLNSHGTSTPVGDVKELAAIREVFGDKSPAISATKAMTGHSLGAAGVQEAIYSLLMLEHGFIAPSINIEELDEQAAGLNIVTETTDRELTTVMSNSFGFGGTNATLVMRKLKD
binding [2]: binds

B4: FabH (enzyme, UniProt P0A6R0 1-317)
chain: MYTKIIGTGSYLPEQVRTNADLEKMVDTSDEWIVTRTGIRERHIAAPNETVSTMGFEAATRAIEMAGIEKDQIGLIVVATTSATHAFPSAACQIQSMLGIKGCPAFDVAAACAGFTYALSVADQYVKSGAVKYALVVGSDVLARTCDPTDRGTIIIFGDGAGAAVLAASEEPGIISTHLHADGSYGELLTLPNADRVNPENSIHLTMAGNEVFKVAVTELAHIVDETLAANNLDRSQLDWLVPHQANLRIISATAKKLGMSMDNVVVTLDRHGNTSAASVPCALDEAVRDGRIKPGQLVLLEAFGGGFTWGSALVRF
binding [2]: binds

B5: PpsA (enzyme, UniProt P23538 1-792)
chain: MSNNGSSPLVLWYNQLGMNDVDRVGGKNASLGEMITNLSGMGVSVPNGFATTADAFNQFLDQSGVNQRIYELLDKTDIDDVTQLAKAGAQIRQWIIDTPFQPELENAIREAYAQLSADDENASFAVRSSATAEDMPDASFAGQQETFLNVQGFDAVLVAVKHVFASLFNDRAISYRVHQGYDHRGVALSAGVQRMVRSDLASSGVMFSIDTESGFDQVVFITSAWGLGEMVVQGAVNPDEFYVHKPTLAANRPAIVRRTMGSKKIRMVYAPTQEHGKQVKIEDVPQEQRDIFSLTNEEVQELAKQAVQIEKHYGRPMDIEWAKDGHTGKLFIVQARPETVRSRGQVMERYTLHSQGKIIAEGRAIGHRIGAGPVKVIHDISEMNRIEPGDVLVTDMTDPDWEPIMKKASAIVTNRGGRTCHAAIIARELGIPAVVGCGDATERMKDGENVTVSCAEGDTGYVYAELLEFSVKSSSVETMPDLPLKVMMNVGNPDRAFDFACLPNEGVGLARLEFIINRMIGVHPRALLEFDDQEPQLQNEIREMMKGFDSPREFYVGRLTEGIATLGAAFYPKRVIVRLSDFKSNEYANLVGGERYEPDEENPMLGFRGAGRYVSDSFRDCFALECEAVKRVRNDMGLTNVEIMIPFVRTVDQAKAVVEELARQGLKRGENGLKIIMMCEIPSNALLAEQFLEYFDGFSIGSNDMTQLALGLDRDSGVVSELFDERNDAVKALLSMAIRAAKKQGKYVGICGQGPSDHEDFAAWLMEEGIDSLSLNPDTVVQTWLSLAELKK
binding [2]: binds

B6: Thioredoxin Reductase 1 (TXNRD1) (enzyme, UniProt Q16881 1-649)
chain: MGCAEGKAVAAAAPTELQTKGKNGDGRRRSAKDHHPGKTLPENPAGFTSTATADSRALLQAYIDGHSVVIFSRSTCTRCTEVKKLFKSLCVPYFVLELDQTEDGRALEGTLSELAAETDLPVVFVKQRKIGGHGPTLKAYQEGRLQKLLKMNGPEDLPKSYDYDLIIIGGGSGGLAAAKEAAQYGKKVMVLDFVTPTPLGTRWGLGGTCVNVGCIPKKLMHQAALLGQALQDSRNYGWKVEETVKHDWDRMIEAVQNHIGSLNWGYRVALREKKVVYENAYGQFIGPHRIKATNNKGKEKIYSAERFLIATGERPRYLGIPGDKEYCISSDDLFSLPYCPGKTLVVGASYVALECAGFLAGIGLDVTVMVRSILLRGFDQDMANKIGEHMEEHGIKFIRQFVPIKVEQIEAGTPGRLRVVAQSTNSEEIIEGEYNTVMLAIGRDACTRKIGLETVGVKINEKTGKIPVTDEEQTNVPYIYAIGDILEDKVELTPVAIQAGRLLAQRLYAGSTVKCDYENVPTTVFTPLEYGACGLSEEKAVEKFGEENIEVYHSYFWPLEWTIPSRDNNKCYAKIICNTKDNERVVGFHVLGPNAGEVTQGFAAALKCGLTKKQLDSTIGIHPVCAEVFTTLSVTKRSGASILQAGCUG
modifications: selenocysteine at 648 (Sec648)
binding [3]: binds

B7: PAPR-Flag (co-expressed with Trx1-6×His) (enzyme, UniProt P17854 1-244)
chain: MSKLDLNALNELPKVDRILALAETNAELEKLDAEGRVAWALDNLPGEYVLSSSFGIQAAVSLHLVNQIRPDIPVILTDTGYLFPETYRFIDELTDKLKLNLKVYRATESAAWQEARYGKLWEQGVEGIEKYNDINKVEPMNRALKELNAQTWFAGLRREQSGSRANLPVLAIQRGVFKVLPIIDWDNRTIYQYLQKHGLKYHPLWDEGYLSVGDTHTTRKWEPGMAEEETRFFGLKRECGLHEG
binding [4]: binds

B8: Tpx-Flag (co-expressed with Trx1-6×His) (enzyme, UniProt P0A862 1-168)
chain: MSQTVHFQGNPVTVANSIPQAGSKAQTFTLVAKDLSDVTLGQFAGKRKVLNIFPSIDTGVCAASVRKFNQLATEIDNTVVLCISADLPFAQSRFCGAEGLNNVITLSTFRNAEFLQAYGVAIADGPLKGLAARAVVVIDENDNVIFSQLVDEITTEPDYEAALAVLKA
binding [4]: binds

B9: DAPDC (enzyme, UniProt P00861 1-420)
chain: MPHSLFSTDTDLTAENLLRLPAEFGCPVWVYDAQIIRRQIAALKQFDVVRFAQKACSNIHILRLMREQGVKVDSVSLGEIERALAAGYNPQTHPDDIVFTADVIDQATLERVSELQIPVNAGSVDMLDQLGQVSPGHRVWLRVNPGFGHGHSQKTNTGGENSKHGIWYTDLPAALDVIQRHHLQLVGIHMHIGSGVDYAHLEQVCGAMVRQVIEFGQDLQAISAGGGLSVPYQQGEEAVDTEHYYGLWNAAREQIARHLGHPVKLEIEPGRFLVAQSGVLITQVRSVKQMGSRHFVLVDAGFNDLMRPAMYGSYHHISALAADGRSLEHAPTVETVVAGPLCESGDVFTQQEGGNVETRALPEVKAGDYLVLHDTGAYGASMSSNYNSRPLLPEVLFDNGQARLIRRRQTIEELLALELL
binding [2]: binds

B10: GatD (enzyme, UniProt P0A9S3 1-346)
chain: MKSVVNDTDGIVRVAESVIPEIKHQDEVRVKIASSGLCGSDLPRIFKNGAHYYPITLGHEFSGYIDAVGSGVDDLHPGDAVACVPLLPCFTCPECLKGFYSQCAKYDFIGSRRDGGFAEYIVVKRKNVFALPTDMPIEDGAFIEPITVGLHAFHLAQGCENKNVIIIGAGTIGLLAIQCAVALGAKSVTAIDISSEKLALAKSFGAMQTFNSSEMSAPQMQSVLRELRFNQLILETAGVPQTVELAVEIAGPHAQLALVGTLHQDLHLTSATFGKILRKELTVIGSWMNYSSPWPGQEWETASRLLTERKLSLEPLIAHRGSFESFAQAVRDIARNAMPGKVLLIP
binding [2]: binds
